From the supplement of paper PMC10849652
The other results are listed elsewhere or left out.

The chains behind the UniProt entries cited, without tags or fusion partners. Where a name states a change or a piece, a line headed by the entry shows the natural chain unless it says otherwise.
UniProt P02100: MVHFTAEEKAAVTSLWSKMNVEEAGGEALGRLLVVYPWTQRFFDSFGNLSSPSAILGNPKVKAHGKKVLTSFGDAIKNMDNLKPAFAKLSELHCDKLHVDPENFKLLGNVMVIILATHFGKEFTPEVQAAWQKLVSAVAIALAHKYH
UniProt P51858: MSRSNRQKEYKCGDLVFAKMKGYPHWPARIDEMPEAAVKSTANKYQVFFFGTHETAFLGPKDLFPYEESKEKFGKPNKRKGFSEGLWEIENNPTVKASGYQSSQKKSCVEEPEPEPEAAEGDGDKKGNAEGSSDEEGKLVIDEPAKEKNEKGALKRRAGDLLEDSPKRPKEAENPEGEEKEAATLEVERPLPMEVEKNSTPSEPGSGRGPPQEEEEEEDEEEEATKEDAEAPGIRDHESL
UniProt P46439: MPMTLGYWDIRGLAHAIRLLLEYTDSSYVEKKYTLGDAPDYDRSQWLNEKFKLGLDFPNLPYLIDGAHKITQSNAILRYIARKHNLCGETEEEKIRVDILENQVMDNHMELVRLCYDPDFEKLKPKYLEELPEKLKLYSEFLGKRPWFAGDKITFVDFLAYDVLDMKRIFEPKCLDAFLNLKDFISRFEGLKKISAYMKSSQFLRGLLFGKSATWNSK
UniProt Q00341: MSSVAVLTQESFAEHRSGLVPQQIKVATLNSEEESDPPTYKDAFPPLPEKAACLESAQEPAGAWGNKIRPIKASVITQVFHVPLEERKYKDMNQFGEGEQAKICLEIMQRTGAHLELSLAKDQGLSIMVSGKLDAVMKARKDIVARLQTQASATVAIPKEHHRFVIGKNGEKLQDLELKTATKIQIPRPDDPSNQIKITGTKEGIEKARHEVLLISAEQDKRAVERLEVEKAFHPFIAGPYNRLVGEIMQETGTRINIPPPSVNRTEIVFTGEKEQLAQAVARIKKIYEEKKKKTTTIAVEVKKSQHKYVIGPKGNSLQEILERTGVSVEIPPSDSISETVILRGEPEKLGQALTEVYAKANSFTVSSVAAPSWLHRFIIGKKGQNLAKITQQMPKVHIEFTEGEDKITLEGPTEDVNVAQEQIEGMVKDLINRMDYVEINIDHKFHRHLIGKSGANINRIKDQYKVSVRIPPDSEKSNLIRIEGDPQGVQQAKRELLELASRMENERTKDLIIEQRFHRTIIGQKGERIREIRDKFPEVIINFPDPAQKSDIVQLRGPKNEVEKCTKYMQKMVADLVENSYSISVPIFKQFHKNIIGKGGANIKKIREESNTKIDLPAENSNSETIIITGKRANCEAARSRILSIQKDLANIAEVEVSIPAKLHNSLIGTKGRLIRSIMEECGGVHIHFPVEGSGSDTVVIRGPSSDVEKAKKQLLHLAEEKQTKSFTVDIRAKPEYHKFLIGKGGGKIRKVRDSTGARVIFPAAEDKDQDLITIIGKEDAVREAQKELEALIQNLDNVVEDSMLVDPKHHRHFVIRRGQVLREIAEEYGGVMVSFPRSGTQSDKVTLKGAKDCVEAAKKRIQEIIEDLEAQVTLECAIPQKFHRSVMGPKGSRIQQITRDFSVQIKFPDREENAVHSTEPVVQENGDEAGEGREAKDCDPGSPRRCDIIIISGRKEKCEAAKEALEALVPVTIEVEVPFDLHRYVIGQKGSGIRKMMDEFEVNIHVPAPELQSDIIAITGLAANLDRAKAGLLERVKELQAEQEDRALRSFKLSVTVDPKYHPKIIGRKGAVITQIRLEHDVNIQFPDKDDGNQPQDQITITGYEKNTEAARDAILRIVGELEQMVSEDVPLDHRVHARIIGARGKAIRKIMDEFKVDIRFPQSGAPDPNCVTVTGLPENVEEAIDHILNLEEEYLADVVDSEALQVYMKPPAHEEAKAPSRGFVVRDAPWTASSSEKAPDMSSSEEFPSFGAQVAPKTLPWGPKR
UniProt P16403, whole entry, looked up: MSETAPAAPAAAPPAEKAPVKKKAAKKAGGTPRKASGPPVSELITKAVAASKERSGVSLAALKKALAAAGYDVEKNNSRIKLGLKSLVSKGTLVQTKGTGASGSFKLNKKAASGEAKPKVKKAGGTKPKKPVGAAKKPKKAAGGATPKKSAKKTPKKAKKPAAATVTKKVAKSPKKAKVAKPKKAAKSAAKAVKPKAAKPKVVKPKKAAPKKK
UniProt Q9Y5Z4: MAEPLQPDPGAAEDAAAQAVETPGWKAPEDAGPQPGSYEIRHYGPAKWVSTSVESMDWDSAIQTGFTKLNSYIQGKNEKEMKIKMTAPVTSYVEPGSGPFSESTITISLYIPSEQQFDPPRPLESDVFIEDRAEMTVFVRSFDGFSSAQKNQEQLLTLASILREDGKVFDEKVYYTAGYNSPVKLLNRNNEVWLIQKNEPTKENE
UniProt Q96CS2: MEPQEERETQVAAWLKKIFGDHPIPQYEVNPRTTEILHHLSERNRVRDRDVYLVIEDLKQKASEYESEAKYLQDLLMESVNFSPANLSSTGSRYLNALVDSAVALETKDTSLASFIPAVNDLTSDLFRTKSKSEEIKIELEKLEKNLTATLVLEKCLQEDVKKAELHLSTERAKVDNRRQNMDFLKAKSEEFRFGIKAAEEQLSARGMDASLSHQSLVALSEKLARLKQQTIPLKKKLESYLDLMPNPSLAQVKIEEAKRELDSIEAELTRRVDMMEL
UniProt Q9NRV9: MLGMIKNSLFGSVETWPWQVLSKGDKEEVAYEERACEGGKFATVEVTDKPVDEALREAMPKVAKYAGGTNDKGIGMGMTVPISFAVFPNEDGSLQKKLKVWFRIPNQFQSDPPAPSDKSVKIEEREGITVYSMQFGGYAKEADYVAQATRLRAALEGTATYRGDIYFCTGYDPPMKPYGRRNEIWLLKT
UniProt A4D1E9: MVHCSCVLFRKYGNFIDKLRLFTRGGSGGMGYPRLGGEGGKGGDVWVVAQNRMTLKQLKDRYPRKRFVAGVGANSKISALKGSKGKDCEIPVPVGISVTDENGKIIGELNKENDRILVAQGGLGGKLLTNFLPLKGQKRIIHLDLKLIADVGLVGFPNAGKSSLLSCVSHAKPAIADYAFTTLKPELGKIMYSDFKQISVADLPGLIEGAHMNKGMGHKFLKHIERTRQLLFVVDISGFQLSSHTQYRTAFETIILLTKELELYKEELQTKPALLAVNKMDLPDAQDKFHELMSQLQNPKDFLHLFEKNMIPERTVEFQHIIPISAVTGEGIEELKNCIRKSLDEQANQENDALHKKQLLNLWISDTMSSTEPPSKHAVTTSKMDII
UniProt Q9BSH5: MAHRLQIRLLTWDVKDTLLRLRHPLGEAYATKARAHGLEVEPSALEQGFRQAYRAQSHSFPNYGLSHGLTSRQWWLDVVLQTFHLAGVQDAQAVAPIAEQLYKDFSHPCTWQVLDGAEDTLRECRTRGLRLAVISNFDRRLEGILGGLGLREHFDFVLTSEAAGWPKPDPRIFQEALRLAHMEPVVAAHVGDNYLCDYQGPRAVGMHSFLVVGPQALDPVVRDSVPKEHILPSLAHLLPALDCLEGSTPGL
UniProt Q9Y3E1: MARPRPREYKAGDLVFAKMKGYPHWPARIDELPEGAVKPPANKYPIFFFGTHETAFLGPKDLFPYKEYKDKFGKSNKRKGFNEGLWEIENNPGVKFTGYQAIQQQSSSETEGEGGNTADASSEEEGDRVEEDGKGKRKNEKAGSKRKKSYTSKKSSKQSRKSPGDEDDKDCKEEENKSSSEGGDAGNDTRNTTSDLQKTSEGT
UniProt P48637: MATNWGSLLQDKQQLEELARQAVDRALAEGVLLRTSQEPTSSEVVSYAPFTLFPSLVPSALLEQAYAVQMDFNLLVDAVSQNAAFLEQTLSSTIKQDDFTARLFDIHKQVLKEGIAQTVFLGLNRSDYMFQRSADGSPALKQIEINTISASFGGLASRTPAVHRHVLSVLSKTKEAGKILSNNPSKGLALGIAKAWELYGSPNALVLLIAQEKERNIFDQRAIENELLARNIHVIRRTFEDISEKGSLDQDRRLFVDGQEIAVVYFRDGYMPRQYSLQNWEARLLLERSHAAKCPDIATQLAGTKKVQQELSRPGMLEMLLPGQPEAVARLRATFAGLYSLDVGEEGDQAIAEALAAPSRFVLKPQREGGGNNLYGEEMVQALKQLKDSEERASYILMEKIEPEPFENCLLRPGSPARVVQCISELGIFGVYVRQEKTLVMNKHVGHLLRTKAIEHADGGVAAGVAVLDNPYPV
UniProt P53701: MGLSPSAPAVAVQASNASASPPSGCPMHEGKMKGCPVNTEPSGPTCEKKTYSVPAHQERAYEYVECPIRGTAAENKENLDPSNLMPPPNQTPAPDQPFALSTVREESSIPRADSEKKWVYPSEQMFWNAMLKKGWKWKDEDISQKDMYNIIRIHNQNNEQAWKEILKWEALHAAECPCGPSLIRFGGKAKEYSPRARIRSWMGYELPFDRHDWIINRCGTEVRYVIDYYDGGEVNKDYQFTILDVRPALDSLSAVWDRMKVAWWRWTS
UniProt Q9NYZ3: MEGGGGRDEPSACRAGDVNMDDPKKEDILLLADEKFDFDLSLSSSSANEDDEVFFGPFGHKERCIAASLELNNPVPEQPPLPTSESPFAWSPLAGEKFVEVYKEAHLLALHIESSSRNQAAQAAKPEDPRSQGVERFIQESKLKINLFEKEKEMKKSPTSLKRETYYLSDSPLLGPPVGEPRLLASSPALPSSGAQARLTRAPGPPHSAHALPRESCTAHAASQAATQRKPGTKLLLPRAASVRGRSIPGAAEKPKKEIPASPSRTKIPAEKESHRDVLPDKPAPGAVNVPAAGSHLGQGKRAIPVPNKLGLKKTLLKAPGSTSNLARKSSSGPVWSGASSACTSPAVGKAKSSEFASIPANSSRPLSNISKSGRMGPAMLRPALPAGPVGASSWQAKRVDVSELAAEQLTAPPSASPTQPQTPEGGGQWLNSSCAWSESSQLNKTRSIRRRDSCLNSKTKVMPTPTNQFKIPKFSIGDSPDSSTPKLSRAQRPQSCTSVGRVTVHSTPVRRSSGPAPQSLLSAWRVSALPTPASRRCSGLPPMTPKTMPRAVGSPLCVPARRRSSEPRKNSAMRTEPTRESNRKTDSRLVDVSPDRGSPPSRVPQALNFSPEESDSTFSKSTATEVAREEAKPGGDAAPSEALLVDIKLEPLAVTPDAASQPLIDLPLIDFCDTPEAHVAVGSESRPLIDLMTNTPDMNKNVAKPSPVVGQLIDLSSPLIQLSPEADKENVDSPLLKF
UniProt P06396, whole entry, looked up: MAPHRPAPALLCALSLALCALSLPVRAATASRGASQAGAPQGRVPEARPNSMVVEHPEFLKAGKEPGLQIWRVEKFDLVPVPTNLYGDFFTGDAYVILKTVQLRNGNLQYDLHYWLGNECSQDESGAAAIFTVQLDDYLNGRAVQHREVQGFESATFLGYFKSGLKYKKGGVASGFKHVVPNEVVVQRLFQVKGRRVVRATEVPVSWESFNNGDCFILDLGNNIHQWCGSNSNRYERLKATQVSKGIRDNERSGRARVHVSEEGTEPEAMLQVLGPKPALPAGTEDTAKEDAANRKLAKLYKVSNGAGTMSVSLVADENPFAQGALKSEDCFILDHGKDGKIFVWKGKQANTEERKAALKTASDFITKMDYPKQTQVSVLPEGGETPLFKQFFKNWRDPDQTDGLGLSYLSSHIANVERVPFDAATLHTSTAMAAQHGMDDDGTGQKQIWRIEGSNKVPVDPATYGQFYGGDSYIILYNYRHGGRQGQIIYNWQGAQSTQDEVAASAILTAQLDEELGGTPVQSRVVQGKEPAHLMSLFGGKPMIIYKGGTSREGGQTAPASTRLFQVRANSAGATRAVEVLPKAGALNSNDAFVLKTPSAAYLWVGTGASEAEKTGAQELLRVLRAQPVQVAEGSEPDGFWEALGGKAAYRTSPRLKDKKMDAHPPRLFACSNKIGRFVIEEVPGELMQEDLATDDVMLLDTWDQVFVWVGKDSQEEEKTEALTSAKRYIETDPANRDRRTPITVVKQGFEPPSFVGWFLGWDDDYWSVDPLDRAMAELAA
UniProt P13984, whole entry, looked up: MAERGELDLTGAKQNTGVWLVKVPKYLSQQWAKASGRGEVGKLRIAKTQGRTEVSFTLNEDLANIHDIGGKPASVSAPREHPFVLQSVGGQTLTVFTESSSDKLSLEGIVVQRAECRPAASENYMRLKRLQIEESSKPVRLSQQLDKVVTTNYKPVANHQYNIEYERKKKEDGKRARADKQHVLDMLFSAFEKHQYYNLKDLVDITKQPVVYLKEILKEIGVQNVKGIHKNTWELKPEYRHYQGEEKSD
UniProt P02724: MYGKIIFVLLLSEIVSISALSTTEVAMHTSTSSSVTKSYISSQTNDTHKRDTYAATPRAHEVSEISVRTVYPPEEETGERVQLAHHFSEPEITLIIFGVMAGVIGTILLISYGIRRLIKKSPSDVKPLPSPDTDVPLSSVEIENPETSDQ
UniProt Q969F1: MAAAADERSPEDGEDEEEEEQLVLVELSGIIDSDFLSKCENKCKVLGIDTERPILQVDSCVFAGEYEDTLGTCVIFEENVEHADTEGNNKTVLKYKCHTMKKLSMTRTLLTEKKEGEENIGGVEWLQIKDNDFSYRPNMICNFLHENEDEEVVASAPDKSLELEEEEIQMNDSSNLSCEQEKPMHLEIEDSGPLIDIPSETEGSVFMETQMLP

Tests used:
Experiment in all cases: log2 fold change, soluble protein after heating vs DMSO (PISA); higher = thermal stabilisation; K562 cells, 10 uM, 30 min; active = over 0.2 and 3.5 SD of the protein, either way, in both replicates (recomputed)
[1] = compound: CS(=O)(=O)c1ccc(-c2cnc(N)c(C(=O)Nc3ccccc3)n2)cc1
Outline: (§1)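 For each measurement, 10 μM compound was applied for 30 min to K562 cells at 2×10^6 cells/mL. Aliquots were heated for 3 min across 48°C-58°C, pooled, and extracted in PBS with 0.5% NP-40 at 4°C; the supernatant after 21,000xg for 90 min was soluble protein. This was quantified by TMTpro 16plex LC-MS/MS with channel sums equalised, and thermal stability was reported relative to control samples from duplicates, on a log2 fold-change scale.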

crizotinib = compound: C[C@@H](Oc1cc(-c2cnn(C3CCNCC3)c2)cnc1N)c1c(Cl)ccc(F)c1Cl [crizotinib]
Outline: as §1

[2] = compound: C[C@@H]1COCCN1C2=NC(=NC(=C2)C3(CC3)S(=O)(=O)C)C4=C5C=CNC5=CC=C4
Outline: as §1

[3] = compound: C[C@H](C1=CC=C(C=C1)C(=O)NC2=C3C=CNC3=NC=C2)N
Outline: as §1

duvelisib = compound: C[C@H](Nc1ncnc2nc[nH]c12)c1cc2cccc(Cl)c2c(=O)n1-c1ccccc1 [duvelisib]
Outline: as §1

gandotinib = compound: Cc1cc(Nc2cc(CN3CCOCC3)c3nc(C)c(Cc4ccc(Cl)cc4F)n3n2)n[nH]1 [gandotinib]
Outline: as §1

tozasertib = compound: Cc1cc(Nc2cc(N3CCN(C)CC3)nc(Sc3ccc(NC(=O)C4CC4)cc3)n2)n[nH]1 [tozasertib]
Outline: as §1

[4] = compound: Cc1cc(SCc2sc(-c3ccc(C(F)(F)F)cc3)nc2C)ccc1OCC(=O)O
Outline: as §1

doramapimod = compound: Cc1ccc(-n2nc(C(C)(C)C)cc2NC(=O)Nc2ccc(OCCN3CCOCC3)c3ccccc23)cc1 [doramapimod]
Outline: as §1

ispinesib = compound: Cc1ccc(C(=O)N(CCCN)[C@@H](c2nc3cc(Cl)ccc3c(=O)n2Cc2ccccc2)C(C)C)cc1 [ispinesib]
Outline: as §1

Measured: log2 fold change

HBS1L isoform 2 (UniProt Q9Y450)
inactive: [1] 0.04 | crizotinib 0.047 | [2] 0.011 | [3] -0.143 | duvelisib 0.061 | gandotinib -0.001 | tozasertib -0.059 | [4] -0.178 | doramapimod -0.037 | ispinesib -0.073

HBE1 (UniProt P02100)
inactive: [1] -0.033 | crizotinib 0.142 | [2] 0.265 | [3] -0.085 | duvelisib 0.116 | gandotinib 0.037 | tozasertib 0.006 | [4] 0.024 | doramapimod -0.007 | ispinesib 0.131

H1-4 (UniProt P10412)
inactive: [1] -0.036 | crizotinib 0.044 | [2] -0.633 | [3] 0.318 | duvelisib -0.266 | gandotinib 0.219 | tozasertib -0.059 | [4] -0.008 | doramapimod 0.066 | ispinesib -0.18

HDGF (UniProt P51858)
inactive: [1] 0.026 | crizotinib -0.007 | [2] -0.01 | [3] -0.031 | duvelisib -0.009 | gandotinib -0.023 | tozasertib -0.018 | [4] -0.064 | doramapimod -0.041 | ispinesib -0.031

GSTM5 (UniProt P46439)
inactive: [1] -0.224 | crizotinib -0.054 | [2] 0.028 | [3] -0.074 | duvelisib 0.077 | gandotinib 0.124 | tozasertib -0.083 | [4] 0.072 | doramapimod 0.249

HACL1 (UniProt Q9UJ83)
inactive: [1] -0.023 | crizotinib 0.012 | [2] 0.028 | [3] -0.055 | duvelisib -0.02 | gandotinib -0.008 | tozasertib 0.001 | [4] -0.046 | doramapimod 0.012 | ispinesib 0.025

HDLBP (UniProt Q00341)
inactive: [1] 0.059 | crizotinib -0.157 | [2] -0.272 | [3] 0.421 | duvelisib -0.142 | gandotinib 0.208 | tozasertib 0.115 | [4] 0.074 | doramapimod 0.163 | ispinesib -0.277

H1-2 (UniProt P16403)
inactive: [1] 0.014 | crizotinib -0.024 | [2] -0.342 | [3] 0.407 | duvelisib -0.23 | gandotinib 0.357 | tozasertib -0.033 | [4] -0.015 | doramapimod 0.275 | ispinesib -0.045

HDHD5 (UniProt Q9BXW7)
inactive: [1] 0.023 | crizotinib -0.02 | [2] -0.075 | [3] 0.019 | duvelisib 0.126 | gandotinib 0.068 | tozasertib -0.03 | [4] 0.086 | doramapimod -0.008 | ispinesib 0.019

GSTZ1 (UniProt G3V4T6)
inactive: [1] 0.046 | crizotinib -0.041 | [2] 0.057 | [3] -0.047 | duvelisib -0.033 | gandotinib -0.017 | tozasertib -0.016 | [4] 0.062 | doramapimod 0.01 | ispinesib -0.023

H1-3 (UniProt P16402)
inactive: [1] -0.086 | crizotinib 0.023 | [2] -0.638 | [3] 0.294 | duvelisib -0.169 | gandotinib 0.26 | tozasertib -0.05 | [4] 0.025 | doramapimod 0.25 | ispinesib -0.085

HEBP2 (UniProt Q9Y5Z4)
inactive: [1] 0.025 | crizotinib 0.034 | [2] 0.018 | [3] -0.087 | duvelisib 0.02 | gandotinib 0.024 | tozasertib -0.008 | [4] -0.026 | doramapimod -0.042 | ispinesib 0.011

HAUS1 (UniProt Q96CS2)
inactive: [1] -0.061 | crizotinib -0.037 | [2] -0.071 | [3] 0.056 | duvelisib -0.009 | gandotinib -0.024 | tozasertib -0.015 | [4] 0.043 | doramapimod 0.009 | ispinesib -0.041

HEBP1 (UniProt Q9NRV9)
inactive: [1] -0.072 | crizotinib 0.303 | [2] 0.085 | [3] -0.043 | duvelisib 0.109 | gandotinib 0.431 | tozasertib 0.118 | [4] -0.011 | doramapimod 0.224 | ispinesib -0.175

Random excerpt: two records from the list, in no set order.
HBS1L isoform 2 (UniProt Q9Y450)
inactive: [1] 0.04 | crizotinib 0.047 | [2] 0.011 | [3] -0.143 | duvelisib 0.061 | gandotinib -0.001 | tozasertib -0.059 | [4] -0.178 | doramapimod -0.037 | ispinesib -0.073

HACL1 (UniProt Q9UJ83)
inactive: [1] -0.023 | crizotinib 0.012 | [2] 0.028 | [3] -0.055 | duvelisib -0.02 | gandotinib -0.008 | tozasertib 0.001 | [4] -0.046 | doramapimod 0.012 | ispinesib 0.025

Remaining list, next part:

HADH isoform 2 (UniProt Q16836)
inactive: [1] 0.052 | crizotinib 0.023 | [2] 0.07 | [3] -0.035 | duvelisib -0.002 | gandotinib 0.022 | tozasertib -0.033 | [4] -0.027 | doramapimod 0.019 | ispinesib 0.056

GTPBP10 (UniProt A4D1E9)
inactive: [1] -0.186 | crizotinib 0.197 | [2] 0.018 | [3] 0.301 | duvelisib -0.022 | gandotinib -0.228 | tozasertib 0.053 | [4] 0.001 | doramapimod -0.021 | ispinesib -0.109

HDHD3 (UniProt Q9BSH5)
inactive: [1] 0.017 | crizotinib 0.036 | [2] 0.137 | [3] 0.001 | duvelisib 0.048 | gandotinib 0.013 | tozasertib 0.007 | [4] 0.003 | doramapimod -0.027 | ispinesib 0.009

HERC2 (UniProt O95714)
inactive: [1] 0.186 | crizotinib -0.001 | [2] -0.084 | [3] 0.378 | duvelisib -0.058 | gandotinib 0.044 | tozasertib -0.034 | [4] 0.095 | doramapimod 0.263 | ispinesib -0.425

HELB (UniProt Q8NG08)
inactive: [1] 0.041 | crizotinib -0.093 | [2] 0.027 | [3] -0.015 | duvelisib 0.021 | gandotinib -0.045 | tozasertib 0.11 | [4] -0.037 | doramapimod 0.005 | ispinesib 0.025

HDGFL3 (UniProt Q9Y3E1)
inactive: [1] -0.031 | crizotinib 0.088 | [2] -0.006 | [3] 0.001 | duvelisib 0.019 | gandotinib 0.046 | tozasertib -0.031 | [4] -0.046 | doramapimod -0.041 | ispinesib -0.016

HEATR5A (UniProt Q86XA9)
inactive: [1] -0.122 | crizotinib -0.238 | [2] 0.049 | [3] 0.146 | duvelisib -0.103 | gandotinib -0.067 | tozasertib 0.265 | [4] 0.059 | doramapimod 0.073 | ispinesib -0.129

GSS (UniProt P48637)
inactive: [1] -0.005 | crizotinib 0.043 | [2] 0.038 | [3] -0.007 | duvelisib 0.023 | gandotinib 0.015 | tozasertib -0.019 | [4] -0.04 | doramapimod -0.035 | ispinesib 0.026

HBG1 (UniProt P69891)
inactive: [1] 0.002 | crizotinib 0.157 | [2] 0.232 | [3] -0.076 | duvelisib 0.101 | gandotinib 0.068 | tozasertib 0.032 | [4] 0.01 | doramapimod -0.028 | ispinesib 0.168

HCCS (UniProt P53701)
inactive: [1] 0.009 | crizotinib 0.004 | [2] 0.026 | [3] -0.012 | duvelisib -0.016 | gandotinib -0.051 | tozasertib -0.044 | [4] -0.053 | doramapimod -0.001 | ispinesib -0.063

GTSE1 (UniProt Q9NYZ3)
inactive: [1] 0.042 | crizotinib -0.033 | [2] -0.351 | [3] 0.164 | duvelisib -0.129 | gandotinib 0.007 | tozasertib 0.043 | [4] -0.169 | doramapimod 0.158 | ispinesib -0.173

GSN (UniProt P06396)
inactive: [1] -0.03 | crizotinib 0.033 | [2] 0.049 | [3] -0.011 | duvelisib -0.024 | gandotinib -0.054 | tozasertib -0.011 | [4] -0.029 | doramapimod -0.053 | ispinesib -0.018

GTF2F2 (UniProt P13984)
inactive: [1] 0 | crizotinib -0.019 | [2] 0.047 | [3] -0.068 | duvelisib 0.047 | gandotinib -0.051 | tozasertib -0.034 | [4] 0.009 | doramapimod -0.01 | ispinesib 0.005

GYPA (UniProt P02724)
inactive: [1] -0.081 | crizotinib -0.032 | [2] -0.078 | [3] -0.193 | duvelisib 0.038 | gandotinib -0.058 | tozasertib -0.083 | [4] -0.062 | doramapimod -0.015 | ispinesib -0.12

GTF2F1 (UniProt P35269)
inactive: [1] 0.04 | crizotinib -0.008 | [2] -0.003 | [3] 0.003 | duvelisib 0.021 | gandotinib 0.071 | tozasertib -0.044 | [4] -0.037 | doramapimod -0.017 | ispinesib 0.076

GTF3C6 (UniProt Q969F1)
inactive: [1] -0.044 | crizotinib 0.079 | [2] -0.135 | [3] 0.079 | duvelisib -0.031 | gandotinib -0.183 | tozasertib 0.037 | [4] 0.026 | doramapimod 0.174
